# Test system: all PDE isoforms
# Assay: HTS using all PDE isoforms as targets
# Type: biochemical
# Conditions: Example 18 screening, compared with cilostazol
# Description: Compounds included in the library of 800 FDA-approved drugs were diluted 1/4 from a concentration of 100 μM and dispensed into each well in 96-well plates, and mixed with a PDE reactant to allow a PDE reaction with the drug for 1 hour at a constant temperature.
# The experiment was carried out in the same manner as used in screening of the FDA-approved drug library. […] Each of the screening library drugs were diluted 1/4 from 100 μM and dispensed into each well in 96-well plates, and mixed with a PDE reactant, followed by allowing a reaction between the drug and PDE for 1 hour for storage. After a stop solution was mixed with a AMP detection agent, the mixture was dispensed at 20 μl per well to allow a reaction for 10 minutes, followed by immediately measuring luminescence, and the experiment was performed according to a protocol provided by the kit used herein.
# The first selection started with PDE3 as a target, and after candidate drugs were selected, all PDE isoforms were tested.
structure (smiles),measurement,value
CNC(=O)c1ccccc1Sc1ccc2c(/C=C/c3ccccn3)n[nH]c2c1 [axitinib],inhibitory efficacy in all PDE isoforms,high inhibitory efficacy

# Source: patent US20210220340A1, “COMPOSITION FOR PREVENTION OR TREATMENT OF NEURODEGENERATIVE DISEASE” (THE ASAN FOUNDATION, priority 2018, published 2021)
